{"source": "patent EP1052288A1", "about": "“Complex for transferring an anionic substance of interest into a cell” (TRANSGENE S.A., priority 1999, dated 2000)", "experiment": "Sizes of complexes by quasi-elastic light scattering", "type": "physicochemical", "conditions": "complexes (-/+) [1:4], 6 µg DNA (pTG11033), 500 µl", "description": "Sizes of complexes prepared with a plasmid DNA (PTG11033; see EP-A 890 32, 9.6 kb) and the C1qA (4-26) peptide (see Table I) were evaluated. Complexes were formulated either in 5% glucose or in ultrafiltrated foetal calf serum (YM10 Amicon membrane). Formulation was made in 500 µl buffer, with 6 µg DNA and the quantity of peptide necessary to form a [1:4], [-:+] complex. As a control a polylysine SV40 NLS peptide was used. […] When oxidized, the dimerized C1qA peptide could form even smaller complexes, whatever the formulation buffer used. The reasonable sizes obtained in ultrafiltrated serum with C1qA peptides is an advantage for the use of this peptide rather than polylysine derivatives.\nComplexes (-/+):[1:4], 6 µg DNA, 500 µl.\nSize measures: quasi-elastic light scattering, COULTER N4+. [formula] [formula] [formula] [formula]", "note": "At least one peptide structure holds a part that was inferred or is arguable (an end, a ring closure or a residue). Peptide text beside a SMILES is read from it.", "data": [{"smiles": "CC(C)[C@H](NC(=O)[C@H](CCCCN)NC(=O)[C@H](CCCNC(=N)N)NC(=O)[C@H](CCCCN)NC(=O)[C@H](CCCCN)NC(=O)[C@H](CCCCN)NC(=O)[C@@H]1CCCN1C(=O)CNC(=O)CNC(=O)[C@H](CCCCN)NC(=O)[C@H](Cc1c[nH]c2ccccc12)NC(=O)[C@H](CCCCN)NC(=O)[C@H](CCCCN)NC(=O)[C@H](CCCCN)NC(=O)[C@H](CCCCN)NC(=O)[C@H](CCCCN)NC(=O)[C@H](CCCCN)NC(=O)[C@H](CCCCN)NC(=O)[C@H](CCCCN)NC(=O)[C@H](C)NC(=O)[C@H](CCCCN)NC(=O)[C@H](Cc1ccc(O)cc1)NC(=O)CCCC[C@@H]1SC[C@@H]2NC(=O)N[C@@H]21)C(=O)O", "note": "[bioY22V, reference compound] (HELM PEPTIDE1{[O=C1N[C@H]2[C@H](CS[C@H]2CCCCC(=O)[*:2])N1].Y.K.A.K.K.K.K.K.K.K.K.W.K.G.G.P.K.K.K.R.K.V}$$$$V2.0)", "values": [{"measurement": "Sizes in 5% glucose", "result": 100, "unit": "nm"}, {"measurement": "Sizes in ultrafiltrated serum", "setting": "ultrafiltrated foetal calf serum", "result": "1-2 µm"}]}]}
